Results as given in US6337306B1, “Phenoxyacetic acid derivatives and their use as herbicides” (Rhone-Poulenc Agro, priority 1997, dated 2002).
Some results were stated once for a whole list of compounds, not compound by compound.

Tested on: Abutilon theophrasti, Amaranthus retroflexus, Galium aparine, Ipomoea purpurea, Alopecurus myosuroides, Avena fatua, Echinochloa crus-galli, Setaria viridis
Assay: Test Method 2: weed control, glass house pot test
Type: in vivo, weed species
Conditions: 250 g/hectare or less, pre- or post-emergence, versus control pots

Row | SMILES | reduction in growth of one or more of the weed species
1 | COC=C(Oc1ccc(Cl)cc1COC(C)=O)C(=O)OC [Compound 2.619, Methyl 2-(2-Acetyloxymethyl-4-chlorophenoxy)-3-methoxyacrylate] | at least 90%
2 | COC=C(Oc1ccc(Cl)cc1CO)C(=O)OC [Compound 1.313, Methyl 2-(2-Hydroxymethyl-4-chlorophenoxy)-3-methoxyacrylate] | at least 90%
